Laboratory results taken from publication PMC9677696.
Results are given in words; binding and its absence hold for the method and conditions named. Some entries that bind do so weakly or less than the wild type. For some of these results: Sequences can lack the tags named with a protein.

By UniProt entry, the sequences of proteins in these tests, tags left out.
UniProt Q9H9B1: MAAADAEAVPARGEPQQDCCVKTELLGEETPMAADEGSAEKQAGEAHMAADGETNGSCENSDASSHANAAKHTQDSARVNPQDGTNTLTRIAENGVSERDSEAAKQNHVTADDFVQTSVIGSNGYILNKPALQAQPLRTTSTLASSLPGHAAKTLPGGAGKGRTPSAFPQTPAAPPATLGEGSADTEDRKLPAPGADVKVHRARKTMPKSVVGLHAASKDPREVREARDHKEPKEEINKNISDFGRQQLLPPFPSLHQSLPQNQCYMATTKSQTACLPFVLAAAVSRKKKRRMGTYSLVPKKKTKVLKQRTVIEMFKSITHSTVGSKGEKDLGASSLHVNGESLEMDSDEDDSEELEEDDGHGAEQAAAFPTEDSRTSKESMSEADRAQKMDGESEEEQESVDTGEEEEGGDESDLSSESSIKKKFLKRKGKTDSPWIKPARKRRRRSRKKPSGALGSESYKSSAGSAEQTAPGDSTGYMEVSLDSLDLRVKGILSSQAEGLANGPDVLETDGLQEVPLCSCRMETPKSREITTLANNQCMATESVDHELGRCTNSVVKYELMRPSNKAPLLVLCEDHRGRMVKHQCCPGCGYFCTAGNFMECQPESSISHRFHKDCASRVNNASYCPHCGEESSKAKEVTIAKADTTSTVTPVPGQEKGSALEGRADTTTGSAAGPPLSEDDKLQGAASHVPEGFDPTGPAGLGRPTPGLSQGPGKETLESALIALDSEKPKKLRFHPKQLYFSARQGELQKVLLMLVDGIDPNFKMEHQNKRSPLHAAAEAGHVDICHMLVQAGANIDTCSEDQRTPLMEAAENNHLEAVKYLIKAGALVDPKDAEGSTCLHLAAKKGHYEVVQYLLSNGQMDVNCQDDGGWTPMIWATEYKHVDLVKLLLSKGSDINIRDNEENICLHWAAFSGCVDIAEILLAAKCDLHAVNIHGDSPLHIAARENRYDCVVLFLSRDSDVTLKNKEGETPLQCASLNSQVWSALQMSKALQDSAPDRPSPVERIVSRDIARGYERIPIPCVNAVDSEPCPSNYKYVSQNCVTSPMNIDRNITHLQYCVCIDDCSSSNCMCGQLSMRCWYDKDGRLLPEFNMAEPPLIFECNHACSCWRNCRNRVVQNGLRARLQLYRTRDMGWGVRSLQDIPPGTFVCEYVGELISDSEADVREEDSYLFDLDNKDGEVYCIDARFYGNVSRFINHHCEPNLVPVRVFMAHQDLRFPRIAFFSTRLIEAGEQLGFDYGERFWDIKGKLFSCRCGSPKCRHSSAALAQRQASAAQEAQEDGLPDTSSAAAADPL
UniProt Q96KQ7: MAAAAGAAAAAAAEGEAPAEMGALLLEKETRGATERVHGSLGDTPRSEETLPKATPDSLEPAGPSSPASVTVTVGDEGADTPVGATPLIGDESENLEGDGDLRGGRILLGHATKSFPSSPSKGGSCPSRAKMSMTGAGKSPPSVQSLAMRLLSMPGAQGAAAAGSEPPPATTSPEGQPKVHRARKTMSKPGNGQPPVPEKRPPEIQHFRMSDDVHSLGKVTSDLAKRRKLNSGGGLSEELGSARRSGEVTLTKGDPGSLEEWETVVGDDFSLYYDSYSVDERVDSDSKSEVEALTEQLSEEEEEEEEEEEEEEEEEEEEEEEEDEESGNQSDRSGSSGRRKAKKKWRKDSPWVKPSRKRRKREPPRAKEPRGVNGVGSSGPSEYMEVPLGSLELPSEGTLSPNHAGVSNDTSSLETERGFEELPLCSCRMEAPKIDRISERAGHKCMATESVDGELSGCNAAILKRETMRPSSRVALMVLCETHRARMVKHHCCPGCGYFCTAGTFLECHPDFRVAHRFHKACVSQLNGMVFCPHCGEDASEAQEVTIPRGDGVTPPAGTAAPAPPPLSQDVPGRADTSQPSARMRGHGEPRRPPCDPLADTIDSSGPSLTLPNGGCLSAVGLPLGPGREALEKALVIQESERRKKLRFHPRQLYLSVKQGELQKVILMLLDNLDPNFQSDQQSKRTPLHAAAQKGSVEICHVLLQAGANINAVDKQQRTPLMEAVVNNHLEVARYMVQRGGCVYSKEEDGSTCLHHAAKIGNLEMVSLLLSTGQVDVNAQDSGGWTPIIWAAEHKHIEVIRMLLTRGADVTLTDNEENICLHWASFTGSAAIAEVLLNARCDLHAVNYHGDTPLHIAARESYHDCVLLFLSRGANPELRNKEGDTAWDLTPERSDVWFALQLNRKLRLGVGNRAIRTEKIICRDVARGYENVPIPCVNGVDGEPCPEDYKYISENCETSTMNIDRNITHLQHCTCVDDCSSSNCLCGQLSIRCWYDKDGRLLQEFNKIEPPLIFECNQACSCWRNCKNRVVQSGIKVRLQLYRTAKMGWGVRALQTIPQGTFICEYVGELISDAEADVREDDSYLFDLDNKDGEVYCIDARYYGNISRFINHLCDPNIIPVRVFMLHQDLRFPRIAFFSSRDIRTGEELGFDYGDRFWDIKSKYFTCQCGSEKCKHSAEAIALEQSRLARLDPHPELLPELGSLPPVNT

Key:
[1] = biological target: T1, H3K23M peptide (biotinylated histone H3 peptide with lysine 23 to methionine); test: pull-down; 1 μg biotinylated histone peptide on M280 streptavidin Dynabeads; 2 μg EHMT2/G9a or 5 μg EHMT1/GLP incubated overnight at 4 °C; washes with 300 mM KCl, 0.2% Triton-X 100, 1 mM PMSF; bound enzyme detected by anti-Flag or anti-GST western blot; both purified
T1 sequence (peptide, biotin at the C-terminus): KQLASMAARKSAPATGGIK

[2] = biological target: H3K9M peptide (biotinylated histone H3 peptide with lysine 9 to methionine); test: as above

recombinant EHMT1/GLP (euchromatic histone methyltransferase 1), GST-tagged (from UniProt Q9H9B1 1-1298) (enzyme)
binding [1]: no binding (tested: 5 μg of EHMT1/GLP)
binding [2]: binds

recombinant EHMT2/G9a (euchromatic histone methyltransferase 2), Flag-tagged (from UniProt Q96KQ7 1-1210) (enzyme)
binding [1]: binds
binding [2]: binds
